In the supplement of paper PMC6289059 one finds ATP level data, which are given here for 84 compounds.

The other results are listed elsewhere or left out. Many values rest on one well or one pass, so single values are uncertain.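 The assay uses human stem cell-derived hepatocyte-like cells whose DGUOK gene was disrupted by CRISPR, modeling liver mtDNA depletion syndrome. ATP signals were scored within each plate, and any drug with a score of at least 3 was called a primary hit.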 Starred links: 1 amine or outer side, 2 acyl side, 3 side chain; linkers in the order of their positions; H or OH if unused. Positions of bridges follow the written chain, without caps; N, C: chain ends. Non-standard residues stand in square brackets, D forms with d. Residues, ends and D or L forms follow the SMILES beside them. *: point of attachment. X1 = NC1=N[C@@H]([C@H](N[*:1])C(=O)[*:2])C[C@H](O)N1; ΔAla(Z-3-ureido) = NC(=O)N/C=C(\N)C(=O)O; β3hOrn = NCCC[C@H](N)CC(=O)*; Dap = NC[C@H](N)C(=O)O

The test concerns DGUOK Δ14/Δ5 iPSC-derived hepatocyte-like cells (SV20). The test is described as follows: ATP level (CellTiter-Glo luminescence) Z score relative to plate distribution, under 2-DG glycolysis block; higher = more cellular ATP (rescue of mitochondrial ATP production). The conditions noted are these: 5 µM; treatment time: day 15 to day 20 of differentiation (5 days); 2-deoxy-D-glucose: 20 mM for 24 h before assay. For orientation: In ATP-based viability assays light output follows the ATP content of the culture.
With `COc1cc2oc3cc(OC)c(OC)c(CC=C(C)C)c3c(=O)c2c(OC)c1CC=C(C)C`, the ATP level is inactive: -1.64.

With `CC/C(=C(\c1ccccc1)c1ccc(OCCN(C)C)cc1)c1ccccc1`, the ATP level is inactive: -12.8.

As for `CCc1oc2ccccc2c1C(=O)c1cc(Br)c(O)c(Br)c1`, the ATP level was inactive: 1.31.

`CC(=O)Nc1ccc(C(=O)O)cc1`: the ATP level was inactive: -0.516.

In the case of `O=C(O)c1cccnc1C(=O)O`, the ATP level was inactive: -0.802.

Turning to `CC(C)(C)CC(=O)OCC(=O)[C@@]1(O)CC[C@H]2[C@@H]3CCC4=CC(=O)C=C[C@]4(C)[C@H]3[C@@H](O)C[C@@]21C`, the ATP level is inactive: 1.69.

In the case of `O=C(O)c1ccccc1`, the ATP level is inactive: 0.704.

As for `CCOc1ccc(NC(C)=O)cc1`, the ATP level was inactive: 0.939.

Turning to `CN1CCC[C@@H]1CCO[C@](C)(c1ccccc1)c1ccc(Cl)cc1`, the ATP level is inactive: -13.2.

Turning to `CC(=O)O[C@H]1CC[C@]2(C)[C@H]3C(=O)C=C4[C@@H]5C[C@@](C)(C(=O)O)CC[C@]5(C)CC[C@@]4(C)[C@]3(C)CC[C@H]2C1(C)C`, the ATP level was inactive: -1.39.

Take `CN1CCN(c2c(F)cc3c(=O)c(C(=O)O)cn4c3c2SCC4)CC1`: the ATP level was inactive: -6.12.

For the compound `CC(C)=CCc1c2c(c3occ(-c4ccc(O)cc4)c(=O)c3c1O)C=CC(C)(C)O2`, the ATP level was inactive: 0.506.

As to `C/C=C(/C)C(=O)O[C@H]1[C@H](OC(C)=O)[C@@]2(CO)C(CC1(C)C)C1=CCC3[C@@]4(C)CCC(O[C@@H]5O[C@H](C(=O)O)[C@@H](O[C@@H]6O[C@H](CO)[C@@H](O)[C@H](O)[C@H]6O)[C@H](O)[C@H]5O[C@@H]5O[C@H](CO)[C@@H](O)[C@H](O)[C@H]5O)[C@](C)(CO)C4CC[C@@]3(C)[C@]1(C)C[C@H]2O.C/C=C(\C)C(=O)O[C@H]1[C@H](OC(C)=O)[C@@]2(CO)C(CC1(C)C)C1=CCC3[C@@]4(C)CCC(O[C@@H]5O[C@H](C(=O)O)[C@@H](O[C@@H]6O[C@H](CO)[C@@H](O)[C@H](O)[C@H]6O)[C@H](O)[C@H]5O[C@@H]5O[C@H](CO)[C@@H](O)[C@H](O)[C@H]5O)[C@](C)(CO)C4CC[C@@]3(C)[C@]1(C)C[C@H]2O` (some centres undefined), the ATP level was inactive: -0.823.

For `COC(=O)C1=C(C)NC(C)=C(C(=O)OCC(C)C)C1c1ccccc1[N+](=O)[O-]` (centres undefined), the ATP level is inactive: -0.87.

For the compound `O=C1CCc2ccc(OCCCCN3CCN(c4cccc(Cl)c4Cl)CC3)cc2N1`, the ATP level is inactive: -3.98.

As to `CN(C)CCOC(c1ccc(Cl)cc1)c1ccccn1` (centres undefined), the ATP level is inactive: -0.302.

Take `NC(=O)NC1NC(=O)NC1=O` (centres undefined): the ATP level was inactive: 0.841.

Consider `C[C@@H]1CC[C@@]23CCC4(C)[C@@](C=CC5[C@@]6(C)CCC(=O)C(C)(C)C6CC[C@]54C)(OC2=O)C3[C@H]1C` (some centres undefined), for which the ATP level was active: 8.17.

On to `COc1c2ccoc2cc2oc(=O)ccc12`, for which the ATP level is inactive: -0.184.

As to `Cn1c2ncnc-2c(O)n(C)c1=O`, the ATP level was inactive: 2.79.

`Cc1ccccc1C(OCCN(C)C)c1ccccc1` (centres undefined): the ATP level is inactive: -3.2.

On to `N=C(N)NCCCCN`, for which the ATP level is inactive: -0.101.

For `CN1CCOC(c2ccccc2)c2ccccc2C1` (centres undefined), the ATP level is inactive: -0.698.

For the compound `CN1CCC(=C2c3ccccc3CCc3sccc32)CC1`, the ATP level was inactive: -3.98.

Consider `CCN(CC)CCOc1ccc(C(=C(Cl)c2ccccc2)c2ccccc2)cc1`, for which the ATP level is inactive: -0.096.

Take `COc1cc2occ(-c3ccccc3)c(=O)c2c(OC)c1C`: the ATP level was inactive: -5.28.

As for `CCCCNc1ccc(C(=O)OCCN(C)C)cc1`, the ATP level is inactive: -1.07.

Regarding `CCCCCOC(=O)Nc1nc(=O)n([C@@H]2O[C@H](C)[C@@H](O)[C@H]2O)cc1F`, the ATP level is inactive: 0.823.

In the case of `CCC1NC(=O)c2cc(S(N)(=O)=O)c(Cl)cc2N1` (centres undefined), the ATP level was inactive: 0.419.

Take `CC(O)(P(=O)(O)O)P(=O)(O)O`: the ATP level was inactive: 0.23.

For the compound `Cc1cnc(C(=O)NCCc2ccc(S(=O)(=O)NC(=O)NC3CCCCC3)cc2)cn1`, the ATP level is inactive: 1.83.

For the compound `CCc1ccc2c(O)c3c(cc2c1C(=O)OC)C(=O)c1c(O)ccc(O)c1C3=O`, the ATP level is inactive: 0.848.

As to `O=S(=O)(O)c1cc(I)c(O)c2ncccc12`, the ATP level is inactive: 0.507.

`CC(=O)O[C@H]1C[C@@H](OC(C)=O)C(C)(C)[C@@H]2C[C@@H](OC(C)=O)[C@@]3(C)C4=CC(=O)O[C@@H](c5ccoc5)[C@]4(C)CC[C@@H]3[C@@]12C`: the ATP level was inactive: 1.74.

In the case of `O=C1[C@H](CC[C@H](O)c2ccc(F)cc2)[C@@H](c2ccc(O)cc2)N1c1ccc(F)cc1`, the ATP level was inactive: 0.0494.

Consider `CC(C)=CCC1=C(O)c2ccccc2C(=O)C1=O`, for which the ATP level was inactive: 0.0566.

With `CC(C)NCC(O)c1cc(O)cc(O)c1` (centres undefined), the ATP level was inactive: 1.27.

Take `COc1ccc(-c2cc(=O)c3c(OC)c(OC)c(OC)cc3o2)cc1OC`: the ATP level is inactive: -0.701.

Turning to `C#CCN(C)CCCOc1ccc(Cl)cc1Cl`, the ATP level is inactive: -0.396.

In the case of `O=C(O)CN(CCN(CC(=O)O)CC(=O)O)CCN(CC(=O)O)CC(=O)O`, the ATP level is inactive: -7.83.

As for `OC[C@H]1O[C@@H](O[C@H]2[C@H](O)[C@@H](O)C(O)O[C@@H]2CO)[C@H](O)[C@@H](O)[C@@H]1O` (some centres undefined), the ATP level is inactive: 2.36.

With `COc1ccc2c(c1)O[C@H]1c3ccc(OC)cc3OC[C@@H]21`, the ATP level was inactive: -0.68.

For `COc1ccccc1N1CCN(CCCNc2cc(=O)n(C)c(=O)n2C)CC1`, the ATP level was inactive: -1.69.

Turning to `CC(C)CCCC(C)C1CCC2C3CCC4CC(O)CCC4(C)C3CCC12C` (stereo not drawn) [5alpha-CHOLESTANOL], the ATP level was inactive: 0.433.

For `COc1nc(N)nc2c1ncn2[C@@H]1O[C@H](CO)[C@@H](O)[C@@H]1O`, the ATP level was inactive: -0.391.

In the case of `OC[C@H]1O[C@@](CO)(O[C@H]2O[C@H](CO)[C@@H](O)[C@H](O)[C@H]2O)[C@@H](O[C@H]2O[C@H](CO)[C@@H](O)[C@H](O)[C@H]2O)[C@@H]1O`, the ATP level is inactive: 0.65.

With `CCC(=O)OCC(=O)[C@@]1(OC(=O)CC)[C@@H](C)C[C@H]2[C@@H]3CCC4=CC(=O)C=C[C@]4(C)[C@@]3(Cl)[C@@H](O)C[C@@]21C`, the ATP level is inactive: 1.64.

With `O=C(/C=C/C=C/c1ccc2c(c1)OCO2)N1CCCCC1`, the ATP level is inactive: 0.29.

For the compound `CCN(CC)S(=O)(=O)c1ccc(C(=O)O)cc1`, the ATP level was inactive: 1.02.

For the compound `CCN(CC)Cc1cc(Nc2ccnc3cc(Cl)ccc23)ccc1O`, the ATP level was inactive: -2.64.

Consider `Cc1nc2n(c(=O)c1CCN1CCC(c3noc4cc(F)ccc34)CC1)CCCC2O` (centres undefined), for which the ATP level was inactive: -1.47.

Turning to `CCN(CC)CCNC(=O)COc1ccc(OC)cc1`, the ATP level was inactive: 0.054.

For `CC(=O)OCC1=C(C(=O)O)N2C(=O)[C@@H](NC(=O)Cc3cccs3)[C@H]2SC1`, the ATP level is inactive: -11.2.

Consider `CCOc1ccc(NC(=O)CC(C)O)cc1` (centres undefined), for which the ATP level is inactive: -0.152.

Turning to `COc1c(O)cc2oc3cc(O)c(CC=C(C)C)c(O)c3c(=O)c2c1CC=C(C)C` [alpha-MANGOSTIN], the ATP level was inactive: -7.09.

`C=CCCCCCCCCC(=O)O`: the ATP level was inactive: 0.773.

As for `COC(=O)C[C@H]1C(C)(C)[C@@H](OC(C)=O)[C@@H]2CC3C4CC(=O)O[C@@H](c5ccoc5)[C@]4(C)CCC3[C@@]1(C)C2=O` (some centres undefined), the ATP level is inactive: -3.99.

As to `CCCCc1nc(Cl)c(CO)n1Cc1ccc(-c2ccccc2-c2nnn[nH]2)cc1`, the ATP level is active: 3.03.

For the compound `CC1(C)S[C@@H]2[C@H](NC(=O)Cc3ccccc3)C(=O)N2[C@H]1C(=O)O`, the ATP level was inactive: -0.115.

Turning to `O=C1CCC(N2C(=O)c3ccccc3C2=O)C(=O)N1` (centres undefined), the ATP level is inactive: -7.92.

As to `CC1(C)C[C@@H]2C(=O)CC[C@H]3O[C@]3(C)CC[C@H]21`, the ATP level is inactive: 0.242.

For the compound `O=C1OC(CN2CCOCC2)CN1/N=C/c1ccc([N+](=O)[O-])o1` (centres undefined), the ATP level was inactive: -0.681.

`CC[n+]1c(-c2ccccc2)c2cc(N)ccc2c2ccc(N)cc21`: the ATP level is inactive: -11.7.

In the case of `O=C(O)[C@]1(O)C[C@@H](O)[C@@H](O)[C@H](O)C1`, the ATP level is inactive: 0.0231.

`O=C(O)CCNC(=O)c1ccc(/N=N/c2ccc(O)c(C(=O)O)c2)cc1`: the ATP level is inactive: -0.325.

For the compound `C[n+]1ccccc1/C=N/O`, the ATP level was inactive: 1.51.

On to `COc1ccc(/C=C/C(=O)c2cc(O)ccc2O)cc1`, for which the ATP level is inactive: -0.847.

In the case of `CCC(C)n1ncn(-c2ccc(N3CCN(c4ccc(OCC5COC(Cn6cncn6)(c6ccc(Cl)cc6Cl)O5)cc4)CC3)cc2)c1=O` (centres undefined), the ATP level was inactive: -18.5.

In the case of `Cc1cccc(Nc2ccccc2C(=O)O)c1C`, the ATP level is inactive: 1.86.

As to `C=CCSCC=C`, the ATP level was inactive: -4.8.

In the case of `C[C@H]1[C@H](OC(=O)CCC(=O)O)O[C@@H]2O[C@@]3(C)CC[C@H]4[C@H](C)CC[C@@H]1[C@@]24OO3`, the ATP level is inactive: -16.2.

On to `O=C(Oc1cccc2cccnc12)c1ccccc1`, for which the ATP level is inactive: 2.16.

As to `CN1CCC(OC(c2ccccc2)c2ccccc2)CC1`, the ATP level is inactive: -3.64.

Turning to `COc1cccc(-c2cc(=O)c3ccc(OC)cc3o2)c1`, the ATP level was inactive: -1.63.

Consider `C[N+](C)(C)CCO.[Cl-]`, for which the ATP level was inactive: -9.09.

Turning to `C/C=C1\[C@H]2C=C(C)C[C@]1(N)c1ccc(=O)[nH]c1C2`, the ATP level was inactive: -2.81.

`Cc1cc(O)c2c(c1)C(=O)c1cc(O)cc(O)c1C2=O`: the ATP level is inactive: 0.884.

`CN(C/C=C/C#CC(C)(C)C)Cc1cccc2ccccc12`: the ATP level is inactive: 1.19.

As for `Fc1ccc([C@@H]2CCNC[C@H]2COc2ccc3c(c2)OCO3)cc1`, the ATP level was inactive: -1.21.

As for `Nc1nc(O)c2ncn(CCC(CO)CO)c2n1`, the ATP level is inactive: 0.823.

For the compound `C=C1CCC2C(CC2(C)C)C(=O)CCC1O` (centres undefined), the ATP level is inactive: 2.25.

Consider `NC(CO)C(=O)NNCc1ccc(O)c(O)c1O` (centres undefined), for which the ATP level was inactive: 1.85.

`C[C@H]1COc2c(N3CCN(C)CC3)c(F)cc3c(=O)c(C(=O)O)cn1c23`: the ATP level is inactive: -1.27.

As for `NCCC[C@H](N)CC(=O)N[C@H]1CNC(=O)[C@H]([C@H]2C[C@H](O)NC(N)=N2)NC(=O)/C(=C/NC(N)=O)NC(=O)[C@H](CO)NC(=O)[C@H](CO)NC1=O` (β3hOrn-[Dap]SS[ΔAla(Z-3-ureido)][X1]; lactam 1-C), the ATP level is inactive: 1.02.
